The data set can be described thus: general procedure: Fmoc solid-phase peptide synthesis; Rink-Amide MBHA resin; DIC/HOBt; HATU/DIPEA for conjugation. As to conditions: conjugation step; for final HPLC purity: 220 nm.

HELM strings list residues between dots; [ac] is acetyl, [am] amide, other brackets name non-standard units.

Consider “GnRH-III-[2ΔHis-3D-Tic,8Lys(glutaryl-Val-Cit-PABC-Dau)]”, for which the conjugation yield came to 62% and the “final HPLC purity” value is on record as ≥98%.
“PEPTIDE1{[Glp].H.W.[Lys(Bu)].H.D.W.K.P.G.[am]}|PEPTIDE2{[Glt].V.A.[PABC-Dau]}$PEPTIDE1,PEPTIDE2,8:R3-1:R3$$$V2.0”: the conjugation yield is reported as 70% and the “final HPLC purity” value is recorded as >99%.
Turning to “PEPTIDE1{[Glp].H.W.[Lys(Bu)].H.D.W.K.P.G.[am]}|PEPTIDE2{[Glt].V.A.[PABC-diamine-PTX]}$PEPTIDE1,PEPTIDE2,8:R3-1:R3$$$V2.0”, the conjugation yield was 80% and the “final HPLC purity” value is ≥98%.
As for “PEPTIDE1{[Glp].H.W.[Lys(Bu)].H.D.W.K.P.G.[am]}|PEPTIDE2{[Glt].V.[Cit].[PABC-Dau]}$PEPTIDE1,PEPTIDE2,8:R3-1:R3$$$V2.0”, the conjugation yield was 70% and the “final HPLC purity” value is on record as ≥97%.
In the same order, the values of “PEPTIDE1{[Glp].H.W.[Lys(Bu)].H.D.W.K.P.G.[am]}|PEPTIDE2{[Glt].V.[Cit].[PABC-diamine-PTX]}$PEPTIDE1,PEPTIDE2,8:R3-1:R3$$$V2.0” are 84% and ≥99%.
For “PEPTIDE1{[Glp].H.W.[Lys(Bu)].H.D.W.K.P.G.[am]}|PEPTIDE2{[Glt].[Dau]}$PEPTIDE1,PEPTIDE2,8:R3-1:R3$$$V2.0”, the conjugation yield is recorded as 52% and the “final HPLC purity” value is recorded as ≥99%.
In the same order, the values of “PEPTIDE1{[Glp].H.W.[Lys(Bu)].H.D.W.K.P.G.[am]}|PEPTIDE2{[Glt].[diamine-PTX]}$PEPTIDE1,PEPTIDE2,8:R3-1:R3$$$V2.0” are 53% and >98%.
Turning to “PEPTIDE1{[Glp].[D-Tic].[Lys(Bu)].H.D.W.K.P.G.[am]}|PEPTIDE2{[Glt].[Dau]}$PEPTIDE1,PEPTIDE2,7:R3-1:R3$$$V2.0”, the conjugation yield worked out at 50% and the “final HPLC purity” value was ≥98%.
With “PEPTIDE1{[Glp].[D-Tic].[Lys(Bu)].H.D.W.K.P.G.[am]}|PEPTIDE2{[Glt].[diamine-PTX]}$PEPTIDE1,PEPTIDE2,7:R3-1:R3$$$V2.0”, the conjugation yield turned out to be 65% and the “final HPLC purity” value is given as ≥99%.

The values are drawn from publication PMC9105102 (International Journal of Molecular Sciences, 2022).
